Assay results reported in US20120157452A1, “1H-PYRAZOLO[3,4-B] PYRIDINE COMPOUNDS FOR INHIBITING RAF KINASE” (GENENTECH, INC., priority 2009, published 2012).
Some of these results come from one statement about several compounds together.

Sequences of proteins named here, by UniProt entry; tags and fusion partners are left off.
UniProt P15056, whole entry V600E: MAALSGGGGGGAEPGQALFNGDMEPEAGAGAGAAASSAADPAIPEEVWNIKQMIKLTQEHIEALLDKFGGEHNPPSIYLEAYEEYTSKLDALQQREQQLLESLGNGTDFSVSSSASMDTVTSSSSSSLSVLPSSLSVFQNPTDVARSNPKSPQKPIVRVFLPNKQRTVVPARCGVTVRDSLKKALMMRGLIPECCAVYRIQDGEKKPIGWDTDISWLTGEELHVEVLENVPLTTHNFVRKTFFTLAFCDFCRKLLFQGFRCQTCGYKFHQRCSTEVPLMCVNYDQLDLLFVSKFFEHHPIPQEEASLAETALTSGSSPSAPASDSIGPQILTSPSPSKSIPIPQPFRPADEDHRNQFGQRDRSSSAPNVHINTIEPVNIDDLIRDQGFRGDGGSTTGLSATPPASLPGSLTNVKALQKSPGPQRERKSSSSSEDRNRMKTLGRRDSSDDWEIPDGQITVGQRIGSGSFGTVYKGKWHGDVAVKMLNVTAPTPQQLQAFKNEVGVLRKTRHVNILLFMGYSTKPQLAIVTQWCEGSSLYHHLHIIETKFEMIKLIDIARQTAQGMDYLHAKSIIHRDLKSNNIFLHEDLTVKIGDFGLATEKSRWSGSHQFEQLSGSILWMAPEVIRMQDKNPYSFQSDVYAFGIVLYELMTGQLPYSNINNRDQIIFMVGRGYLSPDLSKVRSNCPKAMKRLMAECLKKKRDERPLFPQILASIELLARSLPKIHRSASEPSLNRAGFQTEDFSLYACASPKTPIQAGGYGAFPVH

Target: T1, V600E full-length B-Raf (Homo sapiens, UniProt P15056, V600E)
T1 construct: made in house; host or cells: Sf9 insect cells (baculovirus)
Assay: B-Raf IC50 assay: incorporation of radio labeled phosphate from [γ-33P]ATP into FSBA-modified wild-type MEK
Assay type: biochemical
Conditions: bound stated
Source text: Determining the activity of Raf in the sample is possible by a number of direct and indirect detection methods (US 2004/0082014). Activity of human recombinant B-Raf protein may be assessed in vitro by assay of the incorporation of radio labeled phosphate to recombinant MAP kinase (MEK), a known physiologic substrate of B-Raf, according to US 2004/0127496 and WO 03/022840. The activity/inhibition of V600E full-length B-Raf was estimated by measuring the incorporation of radio labeled phosphate from [γ-^33]ATP into FSBA-modified wild-type MEK (see Biological Example 1).
Activity of human recombinant B-Raf protein may be assessed in vitro by assay of the incorporation of radio labeled phosphate to recombinant MAP kinase (MEK), a known physiologic substrate of B-Raf, according to US 2004/0127496 and WO 03/022840. Catalytically active human recombinant B-Raf protein is obtained by purification from sf9 insect cells infected with a human B-Raf recombinant baculovirus expression vector.
The activity/inhibition of V600E full-length B-Raf was estimated by measuring the incorporation of radio labeled phosphate from [γ-^33]ATP into FSBA-modified wild-type MEK. The 30-μL, assay mixtures contained 25 mM Na Pipes, pH 7.2, 100 mM KCl, 10 mM MgCl2, 5 mM β-glycerophosphate, 100 μM Na Vanadate, 4 μM ATP, 500 nCi [γ-^33P]ATP, 1 μM FSBA-MEK and 20 nM V600E full-length B-Raf. Incubations were carried out at 22° C. in a Costar 3365 plate (Corning). Prior to the assay, the B-Raf and FSBA-MEK were preincubated together in assay buffer at 1.5× (20 μL of 30 nM and 1.5 μM, respectively) for 15 minutes, and the assay was initiated by the addition of 10 μL of […]. Following the 60-minute incubation, the assay mixtures were quenched by the addition of 100 μL of 25% TCA, the plate was mixed on a rotary shaker for 1 minute, and the product was captured on a Perkin-Elmer GF/B filter plate using a Tomtec Mach III Harvester. After sealing the bottom of the plate, 35 μL of Bio-Safe II (Research Products International) scintillation cocktail were added to each well and the plate was top-sealed and counted in a Topcount NXT (Packard).

Compound | IC50 [nM]
CC1(c2n[nH]c3ncc(NC(=O)c4c(Cl)ccc(OCc5ccccc5)c4F)cc23)CC1 [Example 20, 3-(benzyloxy)-6-chloro-2-fluoro-N-(3-(1-methylcyclopropyl)-1H-pyrazolo[3,4-b]pyridin-5-yl)benzamide] | < 1000
COc1n[nH]c2ncc(NC(=O)c3c(C)ccc(OCc4ccccc4)c3F)cc12 [Example 5, 3-(benzyloxy)-2-fluoro-N-(3-methoxy-1H-pyrazolo[3,4-b]pyridin-5-yl)-6-methylbenzamide] | < 1000
COc1n[nH]c2ncc(NC(=O)c3c(Cl)ccc(OC(C)c4ccccc4)c3F)cc12 (stereo not drawn) [Example 67, 6-chloro-2-fluoro-N-(3-methoxy-1H-pyrazolo[3,4-b]pyridin-5-yl)-3-(1-phenylethoxy)benzamide] | < 1000
COc1n[nH]c2ncc(NC(=O)c3c(Cl)ccc(OCc4ccc(F)cc4)c3F)cc12 [Example 29, 6-chloro-2-fluoro-3-(4-fluorobenzyloxy)-N-(3-methoxy-1H-pyrazolo[3,4-b]pyridin-5-yl)benzamide] | < 1000
O=C(Nc1cnc2[nH]nc(OCCF)c2c1)c1c(Cl)ccc(OCc2ccccc2)c1F [Example 18, 3-(benzyloxy)-6-chloro-2-fluoro-N-(3-(2-fluoroethoxy)-1H-pyrazolo[3,4-b]pyridine-5-yl)benzamide] | < 1000
COc1n[nH]c2ncc(NC(=O)c3c(Cl)ccc(OCc4ccn(C)n4)c3F)cc12 [Example 58, 6-chloro-2-fluoro-N-(3-methoxy-1H-pyrazolo[3,4-b]pyridin-5-yl)-3-((1-methyl-1H-pyrazolo-3-yl)methoxy)benzamide] | < 1000
COc1n[nH]c2ncc(NC(=O)c3c(Cl)ccc(OCc4ccc(C#N)cc4)c3F)cc12 [Example 51, 6-chloro-3-(4-cyanobenzyloxy)-2-fluoro-N-(3-methoxy-1H-pyrazolo[3,4-b]pyridin-5-yl)benzamide] | < 1000
COc1n[nH]c2ncc(NC(=O)c3c(Cl)ccc(OCc4ccc(Cl)cc4)c3F)cc12 [Example 30, 6-chloro-3-(4-chlorobenzyloxy)-2-fluoro-N-(3-methoxy-1H-pyrazolo[3,4-b]pyridin-5-yl)benzamide] | < 1000
COc1n[nH]c2ncc(NC(=O)c3c(F)ccc(OCc4ccccc4)c3Cl)cc12 [Example 33, 3-(benzyloxy)-2-chloro-6-fluoro-N-(3-methoxy-1H-pyrazolo[3,4-b]pyridin-5-yl)benzamide] | < 1000
COc1n[nH]c2ncc(NC(=O)c3c(Cl)ccc(OCc4ccccc4)c3Cl)cc12 [Example 25, 3-(benzyloxy)-2,6-dichloro-N-(3-methoxy-1H-pyrazolo[3,4-b]pyridin-5-yl)benzamide] | < 1000
CCc1ccc(COc2ccc(Cl)c(C(=O)Nc3cnc4[nH]nc(OC)c4c3)c2F)cc1 [Example 55, 6-chloro-3-(4-ethylbenzyloxy)-2-fluoro-N-(3-methoxy-1H-pyrazolo[3,4-b]pyridin-5-yl)benzamide] | < 1000
COCCOc1n[nH]c2ncc(NC(=O)c3c(Cl)ccc(OCc4ccccc4)c3F)cc12 [Example 13, 3-(benzyloxy)-6-chloro-2-fluoro-N-(3-(2-methoxyethoxy)-1H-pyrazolo[3,4-b]pyridin-5-yl)benzamide] | < 1000
COc1n[nH]c2ncc(NC(=O)c3c(Cl)ccc(OCc4nccs4)c3F)cc12 [Example 53, 6-chloro-2-fluoro-N-(3-methoxy-1H-pyrazolo[3,4-b]pyridin-5-yl)-3-(thiazol-2-ylmethoxy)benzamide] | < 1000
CC(C)c1n[nH]c2ncc(NC(=O)c3c(Cl)ccc(OCc4ccccc4)c3F)cc12 [Example 10, 3-(benzyloxy)-6-chloro-2-fluoro-N-(3-isopropyl-1H-pyrazolo[3,4-b]pyridin-5-yl)benzamide] | < 1000
COc1n[nH]c2ncc(NC(=O)c3cc(OCc4ccccc4)ccc3Cl)cc12 [Example 23, 5-(benzyloxy)-2-chloro-N-(3-methoxy-1H-pyrazolo[3,4-b]pyridin-5-yl)benzamide] | < 1000
